Results are given in words; binding and its absence hold for the method and conditions named. Binding calls can cover weak binding; strength is not graded here. Tags and fused reporters may be left off the sequences shown.
These substances were tested against T1, SNAP-tagged Xenopus tropicalis TOCA-1 (Xenopus tropicalis) (UniProt Q6GUF4) (assay: pull-down; SNAP–TOCA-1 or SNAP alone coupled to SNAP-Capture beads; 100 µl of 1 µM purified Ena or VASP with 10 µl coupled beads, 1 h at 4°C; western blot; both purified).
T1 sequence: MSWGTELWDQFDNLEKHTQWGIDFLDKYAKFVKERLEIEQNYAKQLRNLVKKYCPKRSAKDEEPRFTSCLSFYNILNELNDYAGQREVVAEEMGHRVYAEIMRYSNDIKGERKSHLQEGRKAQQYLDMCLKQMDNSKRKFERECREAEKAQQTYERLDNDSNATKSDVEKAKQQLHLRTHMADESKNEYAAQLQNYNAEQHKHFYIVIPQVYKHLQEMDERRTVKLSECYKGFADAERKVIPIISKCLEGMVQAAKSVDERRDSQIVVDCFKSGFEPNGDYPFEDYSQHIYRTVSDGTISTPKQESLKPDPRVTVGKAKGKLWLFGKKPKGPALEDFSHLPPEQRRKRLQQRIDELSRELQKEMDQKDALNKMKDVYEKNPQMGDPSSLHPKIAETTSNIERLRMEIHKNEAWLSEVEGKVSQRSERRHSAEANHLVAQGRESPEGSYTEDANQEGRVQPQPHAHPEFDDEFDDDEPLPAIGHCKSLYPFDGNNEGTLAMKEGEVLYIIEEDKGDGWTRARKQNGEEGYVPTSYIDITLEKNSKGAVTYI

Chains of the proteins cited; added tags and fusions are not shown. Lines headed by an entry give the natural chain unless they say otherwise; changes in a name come on top.
UniProt Q6GPL0: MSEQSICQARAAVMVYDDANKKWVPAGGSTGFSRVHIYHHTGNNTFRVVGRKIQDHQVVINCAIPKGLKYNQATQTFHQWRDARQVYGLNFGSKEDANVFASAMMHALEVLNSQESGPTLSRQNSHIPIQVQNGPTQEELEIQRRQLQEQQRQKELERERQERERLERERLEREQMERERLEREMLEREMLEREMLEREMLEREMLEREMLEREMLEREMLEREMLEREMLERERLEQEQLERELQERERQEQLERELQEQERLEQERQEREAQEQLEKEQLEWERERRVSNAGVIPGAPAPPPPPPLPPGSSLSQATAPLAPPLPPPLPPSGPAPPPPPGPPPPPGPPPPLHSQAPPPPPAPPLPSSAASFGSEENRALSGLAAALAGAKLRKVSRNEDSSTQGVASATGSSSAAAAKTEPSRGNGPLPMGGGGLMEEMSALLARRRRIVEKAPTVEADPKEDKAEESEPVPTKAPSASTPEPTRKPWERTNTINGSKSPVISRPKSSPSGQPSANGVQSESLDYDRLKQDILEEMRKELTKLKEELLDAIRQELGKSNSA

binding, binds:
purified recombinant Xenopus Ena-ΔPRR, purified recombinant wild-type Xenopus Ena (from UniProt Q6GPL0), purified recombinant wild-type Xenopus VASP, purified recombinant Xenopus VASP M1 (ΔPRR with P234G), purified recombinant Xenopus VASP-ΔPRR
